Some of these results come from one statement about several compounds together.
Experiment: In vitro stability of the complexes in PBS and fresh mouse serum
Type: in vitro ADME
Settings: after 6 h

Structure (SMILES) | radiochemical purity (stability)
O=C(O)CCC(NC(=O)NC(CCCCNC(=O)C(Cc1ccc2ccccc2c1)NC(=O)c1ccc(CNC(=O)C(CCC(=O)O)NC(=O)C(CCC(=O)O)NC(=O)c2ccc(N[N]=[99Tc]345([Cl])[O]C(=O)C[N]3CC[N]4CC(=O)[O]5)nc2)cc1)C(=O)O)C(=O)O (centres unmarked) [^99mTc-HYNIC/EDDA-PSMA-XL-2] | greater than 90%
O=C(O)CCC(NC(=O)NC(CCCCNC(=O)C(Cc1ccc2ccccc2c1)NC(=O)c1ccc(CNC(=O)C(CCC(=O)O)NC(=O)c2ccc(N[N]=[99Tc]345([Cl])[O]C(=O)C[N]3CC[N]4CC(=O)[O]5)nc2)cc1)C(=O)O)C(=O)O (centres unmarked) [^99mTc-HYNIC/EDDA-PSMA-XL-3] | greater than 90%

— US12612343B2, “PSMA binder and use thereof” (priority 2020, dated 2026)
